Measured values: paper PMC4415780

Chains of the proteins cited; added tags and fusions are not shown. Lines headed by an entry give the natural chain unless they say otherwise; changes in a name come on top.
UniProt Q57ZX7: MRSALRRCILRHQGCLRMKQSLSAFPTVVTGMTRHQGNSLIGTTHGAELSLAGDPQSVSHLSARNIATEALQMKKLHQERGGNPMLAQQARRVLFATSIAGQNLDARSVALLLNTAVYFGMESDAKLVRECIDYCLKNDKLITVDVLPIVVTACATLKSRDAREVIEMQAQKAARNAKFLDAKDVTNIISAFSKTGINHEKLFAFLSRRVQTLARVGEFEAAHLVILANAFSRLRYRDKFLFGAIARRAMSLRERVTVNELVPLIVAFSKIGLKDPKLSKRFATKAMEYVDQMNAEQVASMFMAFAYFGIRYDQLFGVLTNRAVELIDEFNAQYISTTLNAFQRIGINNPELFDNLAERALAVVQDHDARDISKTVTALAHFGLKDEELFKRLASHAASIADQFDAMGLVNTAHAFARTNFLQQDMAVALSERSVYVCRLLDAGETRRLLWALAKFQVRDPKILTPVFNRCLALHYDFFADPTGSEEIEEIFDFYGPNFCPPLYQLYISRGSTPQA
UniProt Q586X1: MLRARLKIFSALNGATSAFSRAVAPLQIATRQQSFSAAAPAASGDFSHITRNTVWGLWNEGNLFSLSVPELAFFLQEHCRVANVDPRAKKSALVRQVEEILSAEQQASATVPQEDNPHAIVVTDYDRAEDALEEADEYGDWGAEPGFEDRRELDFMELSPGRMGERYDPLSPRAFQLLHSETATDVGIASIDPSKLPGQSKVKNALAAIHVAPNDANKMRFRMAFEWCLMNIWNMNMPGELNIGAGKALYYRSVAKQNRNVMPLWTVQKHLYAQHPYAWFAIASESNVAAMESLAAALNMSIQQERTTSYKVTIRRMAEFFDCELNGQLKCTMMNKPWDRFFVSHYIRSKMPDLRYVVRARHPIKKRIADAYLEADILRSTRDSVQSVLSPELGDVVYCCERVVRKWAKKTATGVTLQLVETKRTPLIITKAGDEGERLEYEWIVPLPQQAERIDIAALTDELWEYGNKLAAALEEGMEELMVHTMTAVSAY

What was measured:
[1] = target: MRB3010 (Trypanosoma brucei (endogenous in procyclic Lister 427 29-13)) (UniProt Q57ZX7); assay: co-IP; REH2 and 3010 IPs from mitochondrial lysates of RNAP knockdown (RNA-depleted) cells, without nuclease treatment; western blot
[2] = target: MRB3010 (Trypanosoma brucei (endogenous in procyclic Lister 427 29-13)) (UniProt Q57ZX7); assay: co-IP; REH2 and 3010 IPs from mitochondrial lysates of RNAP knockdown cells, IP sample treated with a cocktail of nucleases (RNases A and T1, micrococcal nuclease); western blot
[3] = target: MRB3010 (Trypanosoma brucei (endogenous in procyclic Lister 427 29-13)) (UniProt Q57ZX7); assay: co-IP; affinity-purified peptide antibodies to REH2 or MRB3010 on Dynabeads Protein A; ~2 mg pre-cleared mitochondrial extract (untreated cells, or REH2 RNAi at 0 or 4 days); washes 200 mM NaCl, 1 mM EDTA, 10 mM MgCl2, 25 mM Tris pH 8; western blot

- binding [1]: binds
- binding [2]: binds
- binding [3]: binds
Substance: GAP1 (from UniProt Q586X1)

Results are given in words; binding and its absence hold for the method and conditions named. In cells and extracts the contact can be indirect. Binding calls can cover weak binding; strength is not graded here.
